# Experiment: Titration of acid content (1M HCl) in triple combination formulations, with and without oxygen removal
# Conditions: triple combination with 1M HCl 0.191 to 0.254 μg/μl; 3 months at 25° C./60% RH
# Procedure: In each test pair of samples, one can has its oxygen removed by vacuum crimping in order to investigate the impact of oxygen on the degradation process. After 3 months at 25° C./60% RH, the samples are analyzed for residual can content of active ingredients and major impurities/degradation products.
smiles,measurement,value
"C[N+]1(C)CCC(OC(=O)C(O)(c2ccccc2)C2CCCC2)C1.[Cl-] (stereo not shown) [Gly, 3-[(cyclopentylhydroxyphenyl-acetyl)oxy]-1,1-dimethylpyrrolidinium chloride]","stability of the component (residual can content, degradation)",stable over the 3 month period

# From patent publication US20140363384A1, “COMBINATION THERAPY FOR COPD” (CHIESI FARMACEUTICI S.p.A., priority 2009, published 2014)
